Drawing on US20240002522A1 (INSERM INSTITUT NATIONAL DE LA SANTE ET DE LA RECHERCHE …, published 2024), this text covers binding for 13 molecules.

To fix the notation:
T1: human CD25 (human, UniProt P01589 22-272)
T1 construct: In the functional assays it was native on T cells or SUDHL-1 cells; also called huCD25; hCD25
T1 sequence: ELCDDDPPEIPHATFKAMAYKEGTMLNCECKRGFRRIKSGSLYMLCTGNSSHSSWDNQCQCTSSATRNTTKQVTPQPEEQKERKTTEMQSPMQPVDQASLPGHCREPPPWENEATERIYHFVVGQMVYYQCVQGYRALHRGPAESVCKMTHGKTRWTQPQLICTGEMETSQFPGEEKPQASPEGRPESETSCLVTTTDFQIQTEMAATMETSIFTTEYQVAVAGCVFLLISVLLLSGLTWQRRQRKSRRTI

B1: C01 (antibody, V domains shown)
VH: QVQLVESGGGVVQPGRSLRLSCAASGFTFSNHAMAWVRQAPGKGLEWVAVISYDGSNKYYADSVKGRFTISRDNSQNTLYLQMNSLRAEDTAVYYCTTGLNSGYDWGQGTLVTVSS
VL: DIQMTQSPSSLSASVGDRVTITCRASQSISSFLNWYQQKPGEAPRRLIYGTNSLQSGVPSRFSGSGSGTDYTLTISSLQPEDFATYYCQQYTSWPWTFGQGTKLEIK
B2: D01 (antibody, V domains shown)
VH: B1 VH with A61R, S75A, N77S
VL: B1 VL with E42K, Y71F, T92N
B3: B05 (antibody, V domains shown)
VH: B1 VH with A61R, Q76K
VL: B1 VL with S28N, S30N, E42K, N52S, T92N
B4: G02 (antibody, V domains shown)
VH: B1 VH with S75A, Q76K, L100W
VL: B1 VL with I29V, S30N, F32Y, E42K, T92N
B5: E04 (antibody, V domains shown)
VH: B1 VH with S75A, Q76K, L100W
VL: B1 VL with F32Y, E42K, T92N
B6: G02-2 (antibody, V domains shown)
VH: B1 VH with S75A, Q76K
VL: B1 VL with S30N, E42K, Y71F, T92N
B7: E04-2 (antibody, V domains shown)
VH: B1 VH with S75A, Q76K
VL: B1 VL with S28N, S30N, E42K, N52S, Y71F, T92N
B8: D05 (antibody, V domains shown)
VH: B1 VH with Q76K, L100W
VL: B1 VL with I29V
B9: B12 (antibody, V domains shown)
VH: B1 VH with S56D, S75A, Q76K
VL: B1 VL with S30N
B10: H09 (antibody, V domains shown)
VH: B1 VH
VL: B1 VL with I29V, S31K, E42K, T92N
B11: B07 (antibody, V domains shown)
VH: B1 VH
VL: B1 VL with S28N, S30N
B12: F03 (antibody, V domains shown)
VH: B1 VH with K58T, S75A, Q76K, N77S
VL: B1 VL with S28N, I29V, E42K, T92N
B13: G01 (antibody, V domains shown)
VH: B1 VH
VL: B1 VL with I29V, E42K, R45K, T92N

Substitutions are numbered along the chain they refer to. These are yes or no findings as the source states them, for the method shown. Some entries that bind do so weakly or less than the wild type.

The first assay has as its target T1, human CD25. Briefly: flow cytometry (GeoMFI), 0.01 to 500 nM, HEK293 cells transfected with huCD25. (A flow cytometer gives signals particle by particle.)
With B1, the binding entry is on record as “binds”.
For the molecule B2, the binding entry is “binds”.
On the same count and under the same terms, to B3 belongs “binds”; to B4, “binds”.
Consider B5, for which the binding result is given as “binds”.
Still for that read-out and setting: for B6 the value was “binds”.
As for B7, the binding entry was “binds”.
On to B8, for which the binding result is “binds”.
Same read-out and setting: for B9 the value was “binds”.
Consider B10, for which the binding entry is on record as “binds”.
Consider B11, for which the binding entry is recorded as “binds”.
The same measure, in the same setting: for B12 the value was “binds”; for B13, “binds”.

Another assay concerns the target T1, human CD25. Briefly: flow cytometry on HEK293 cells transiently transfected with huCD25, against HEK293 WT.
B1: the binding entry is reported as “binds”.
For the molecule B2, the binding result is recorded as “binds”.
As to B3, the binding entry is listed as “binds”.
As for B4, the binding entry is “binds”.
On the same count and under the same terms, to B5 belongs “binds”; to B6, “binds”.
With B7, the binding entry was “binds”.
Same read-out and setting: to B8 belongs “binds”; to B9, “binds”; to B10, “binds”.
As to B11, the binding result was “binds”.
Consider B12, for which the binding result is “binds”.
The same measure, in the same setting: to B13 belongs “binds”.

The target of another assay is T1, human CD25. The experiment in a line: flow cytometry on HEK293 cells transiently transfected with huCD25; 3-fold dilutions from 500 nM; detection with anti-human IgG (Fc specific) FITC.
As to B1, the binding entry is given as “binds”.
B2: the binding result is listed as “binds”.
For the molecule B3, the binding entry is recorded as “binds”.
In the case of B4, the binding result is “binds”.
On the same count and under the same terms, for B5 the value was “binds”; for B6, “binds”.
On the same count and under the same terms, for B7 the value was “binds”; for B8, “binds”; for B9, “binds”.
With B10, the binding entry was “binds”.
Still for that read-out and setting: to B11 belongs “binds”; to B12, “binds”; to B13, “binds”.
